Columns and labels:
Type in all cases: in vivo
[1] = tested on: mice; assay: Maximal Electroshock Seizure (MES) test, mice i.p.
[2] = tested on: mice; assay: Subcutaneous Metrazol Seizure threshold (s.c. MET) test, mice i.p.
[3] = tested on: mice; assay: 6 Hz (minimal clonic seizure) model, mice i.p.
[4] = tested on: rats; assay: MES test, rats p.o.
[5] = tested on: mice; assay: Audiogenic Seizure susceptible (AGS) test, mice i.p.

SMILES | MES (PI), Protective Index = MID50/ED50 [1] | s.c. MET (PI), Protective Index = MID50/ED50 [2] | 6 Hz (PI), Protective Index = MID50/ED50 [3] | MES (PI) [4] | AGS (PI), Protective Index = MID50/ED50 [5]
CC(C)(CC(N)=O)c1ccc(Cl)cc1 [Compound A, 3-(4-Chlorophenyl)-3-methylbutyramide] | 2.59 | (2.75) | (2.27) | (8.5) | –
CC(CC(N)=O)c1ccc(OC(F)(F)F)cc1 (racemic) [Compound H, 3-[4-(trifluoromethoxy)-phenyl]butyramide] | 2.1 | (1.74) | (2.9) | (>9) | 7.1
CC(CC(N)=O)c1ccc(C(F)(F)F)cc1 (centres unmarked) [F, 3-[4-(trifluoromethyl)-phenyl]butyramide] | 2.4 | (2.4) | (2.6) | (>19) | 5

— patent US12486218B2, “Compounds advantageous in the treatment of central nervous system diseases and disorders” (AurimMed Pharma, Inc., priority 2008, dated 2025)
